In PubChem BioAssay AID330 (DTP/NCI, 2004):
The list is a part of this screen's results and no random one: it is rich in T/C values a quarter to a half above the control, in often repeated tests (any T/C) and in doses without a T/C. Other doses and runs of a compound stand elsewhere. T/C: endpoint of the treated group in % of that of the vehicle group. Some doses have a count of surviving animals in place of a T/C: the source files T/C as zero there, which appears to mark a toxic dose or a test without result, not a measured value. Some survivor counts are full or nearly so, which does not show that the dose was tolerated: survival well below the control is almost never listed, so the zero probably covers shortened survival too. Survivors were counted at the toxicity check, usually on the fifth day, unless a day is given; later deaths do not show. Schedule codes are those of the source, read here as Q, the interval in days (D) or hours (H), X, the number of doses. Some doses were run more than once; the results are listed from low to high. For survival time, the PubChem record calls one and a half times the control and up active, and a quarter to a half above the control has no call in these data; cut-offs in other NCI protocols can differ.

Tested on: P388 leukemia ip, CD2F1 mice, survival T/C
Test: NCI In Vivo Anticancer Drug Screen. Data for tumor model P388 Leukemia (intraperitoneal) in CD2F1 (CDF1) mice
Conditions: T/C endpoint: median survival time, higher T/C = longer survival
[1] = dose: 50.0 mg/kg/injection, schedule: Q01DX009 (ip), vehicle: Klucel (hydroxypropylcellulose) (HPC)
[2] = dose: 100.0 mg/kg/injection, schedule: Q01DX009 (ip), vehicle: Klucel (hydroxypropylcellulose) (HPC)
[3] = dose: 200.0 mg/kg/injection, schedule: Q01DX009 (ip), vehicle: Klucel (hydroxypropylcellulose) (HPC)
[4] = dose: 60.0 mg/kg/injection, schedule: Q01DX005 (ip), vehicle: Klucel (hydroxypropylcellulose) (HPC)
[5] = dose: 120.0 mg/kg/injection, schedule: Q01DX005 (ip), vehicle: Klucel (hydroxypropylcellulose) (HPC)
[6] = dose: 240.0 mg/kg/injection, schedule: Q01DX005 (ip), vehicle: Klucel (hydroxypropylcellulose) (HPC)
[7] = dose: 200.0 mg/kg/injection, schedule: Q01DX005 (ip), vehicle: saline with Tween-80
[8] = dose: 25.0 mg/kg/injection, schedule: Q01DX009 (ip), vehicle: other
[9] = dose: 200.0 mg/kg/injection, schedule: Q01DX005 (ip), vehicle: Klucel (hydroxypropylcellulose) (HPC)
[10] = dose: 50.0 mg/kg/injection, schedule: Q01DX005 (ip), vehicle: saline with Tween-80
[11] = dose: 100.0 mg/kg/injection, schedule: Q01DX005 (ip), vehicle: saline with Tween-80
[12] = dose: 240.0 mg/kg/injection, schedule: Q01DX005 (ip), vehicle: saline
[13] = dose: 200.0 mg/kg/injection, schedule: Q01DX009 (ip), vehicle: saline
[14] = dose: 400.0 mg/kg/injection, schedule: Q04DX003 (ip), vehicle: saline
[15] = dose: 120.0 mg/kg/injection, schedule: Q01DX005 (ip), vehicle: saline with Tween-80

With `Clc1ccc(C[Se][Se]Cc2ccc(Cl)cc2)cc1` the survivor count [1] was 6 of 6, the survivor count [2] was 6 of 6 and the survivor count [3] was 0 of 6.

In the case of `Cc1cc2c(cc1C)NC1=C(N2)OC(c2cccc(O)c2)C1=O` (centres undefined), the survivor count [4] is reported as 6 of 6, the survivor count [5] is reported as 6 of 6 and the survivor count [6] is reported as 6 of 6.

For `N#Cc1ccc(NN=NCCCCCl)cc1`, the survivor count (dose: 25.0 mg/kg/injection, schedule: Q01DX005 (ip), vehicle: distilled water + Tween-80) was 5 of 6, the survivor count (dose: 100.0 mg/kg/injection, schedule: Q01DX005 (ip), vehicle: distilled water + Tween-80) was 2 of 6 and the survivor count (dose: 200.0 mg/kg/injection, schedule: Q01DX005 (ip), vehicle: distilled water + Tween-80) was 1 of 6.

`COc1cc(C2NCCc3cc4c(cc32)OCO4)cc(OC)c1OC` (centres undefined) was tested, and the survivor count [7] was 2 of 5.

In the case of `CC(=O)OC1C=C(C=O)C(O)(C=O)C2(C)CCCC(C)(C)C12` (centres undefined), the survivor count (dose: 6.25 mg/kg/injection, schedule: Q01DX009 (ip), vehicle: other) is reported as 1 of 6, the survivor count (dose: 12.5 mg/kg/injection, schedule: Q01DX009 (ip), vehicle: other) is reported as 1 of 6 and the survivor count [8] is reported as 0 of 6.

With `COC(=O)C1=C(C(=O)OC)C2C=CC1C(=O)N2/C=C/c1ccccc1` (centres undefined) the T/C (dose: 200.0 mg/kg/injection, schedule: Q04DX003 (ip), vehicle: saline with Tween-80) was 126 % of control.

For `O=C1NC(=O)C(=Cc2ccc(Cl)cc2)C(=O)N1`, the survivor count [9] was 0 of 6.

In the case of `O=C(c1ccc(C(=O)N2CC2)cc1)N1CC1`, the survivor count (dose: 40.0 mg/kg/injection, schedule: Q04DX003 (ip), vehicle: saline with Tween-80) is reported as 4 of 6.

With `Cc1cc(NCCCCCCNc2cc(C)[n+](C)c3ccccc23)c2ccccc2[n+]1C` the survivor count [10] was 0 of 5, the survivor count [11] was 0 of 5 and the survivor count [7] was 0 of 5.

With `O=C(Nc1nnc(-c2cc(=O)c3cc(Cl)ccc3o2)s1)c1ccccc1` the survivor count [10] was 6 of 6.

With `[O-][N+]12CCCCC1C1CC(C2)C2CCCC(c3ccccc3)N2C1` (centres undefined) the T/C [1] was 97, 102, 124, 126 % of control, the survivor count [2] was 1 of 6 and 3 of 6 and the survivor count [3] was 0 of 6.

In the case of `CCCCN(CCCC)CCCC(C(C)=O)C(=O)OCC` (centres undefined), the survivor count [9] is reported as 0 of 6.

`CN(N=O)C1=NC2(CCCCC2)P(=O)(NNc2ncccn2)O1` (centres undefined) was tested, and the survivor count [12] was 0 of 6.

For `CC(=O)OCc1ccc(O)c(C=O)c1`, the T/C (dose: 25.0 mg/kg/injection, schedule: Q01DX005 (ip), vehicle: saline with Tween-80) was 125 % of control, the T/C [10] was 128 % of control and the survivor count [11] was 3 of 6 and 4 of 6. For the same compound, the survivor count [7] was 0 of 6.

In the case of `CCCCCCCCCCCCOC(=O)CN=C=O`, the survivor count (dose: 100.0 mg/kg/injection, schedule: Q01DX009 (ip), vehicle: saline) is reported as 6 of 6.

In the case of `Cc1ncc(CCl)n1Cc1ccccc1`, the survivor count (dose: 60.0 mg/kg/injection, schedule: Q01DX005 (ip), vehicle: saline) is reported as 6 of 6, the survivor count (dose: 120.0 mg/kg/injection, schedule: Q01DX005 (ip), vehicle: saline) is reported as 2 of 6 and the survivor count [12] is reported as 0 of 6.

In the case of `C=CCCC/C=C/CN1CCOCC1`, the survivor count [13] is reported as 6 of 6.

With `CCN(CC)CCOCc1cccc2c(=O)cc(-c3ccccc3)oc12` the survivor count [13] was 0 of 6.

For `CCOC(O)C(F)(F)F` (centres undefined), the survivor count [14] was 1 of 6.

With `Cc1ccc(NC(=O)N(CCCl)N=O)cc1NC(=O)N(CCCl)N=O` the T/C (dose: 0.2 mg/kg/injection, schedule: Q01DX009 (ip), vehicle: other) was 130 % of control, the T/C (dose: 0.2 mg/kg/injection, schedule: Q01DX009 (ip), vehicle: saline + alcohol) was 132 % of control and the T/C (dose: 0.29 mg/kg/injection, schedule: Q01DX009 (ip), vehicle: other) was 127 % of control. The T/C (dose: 0.4 mg/kg/injection, schedule: Q01DX009 (ip), vehicle: other) was 140 % of control, the T/C (dose: 0.4 mg/kg/injection, schedule: Q01DX009 (ip), vehicle: saline + alcohol) was 134 % of control and the T/C (dose: 0.44 mg/kg/injection, schedule: Q01DX009 (ip), vehicle: other) was 136 % of control. The T/C (dose: 0.66 mg/kg/injection, schedule: Q01DX009 (ip), vehicle: other) was 131 % of control, the T/C (dose: 0.75 mg/kg/injection, schedule: Q01DX009 (ip), vehicle: saline with Tween-80) was 140 % of control and the T/C (dose: 0.8 mg/kg/injection, schedule: Q01DX009 (ip), vehicle: saline + alcohol) was 144 % of control. For the same compound, the T/C (dose: 1.5 mg/kg/injection, schedule: Q01DX009 (ip), vehicle: saline with Tween-80) was 147 % of control and the survivor count [8] was 6 of 6.

`O=C1OCC2(C(=O)O)C(=O)OCC12` (centres undefined) was tested, and the T/C (dose: 8.0 mg/kg/injection, schedule: Q01DX009 (ip), vehicle: saline with Tween-80) was 130 % of control and the T/C (dose: 32.0 mg/kg/injection, schedule: Q01DX009 (ip), vehicle: saline with Tween-80) was 126 % of control.

With `C/C(=N\N=C(N)N)c1ccc2c(c1)Cc1ccccc1-2` the survivor count (dose: 100.0 mg/kg/injection, schedule: Q04DX002 (ip), vehicle: saline with Tween-80) was 1 of 6.

For `CCOC(=O)C1=C(C(=O)c2ccc(OC)cc2)C(c2cccc([N+](=O)[O-])c2)C(C(=O)c2ccc(OC)cc2)=C(C(=O)OCC)N1`, the survivor count [15] was 6 of 6.

For `c1ccc2c(CCN3CCCCC3)c[nH]c2c1`, the survivor count [15] was 0 of 6 and the survivor count (dose: 240.0 mg/kg/injection, schedule: Q01DX005 (ip), vehicle: saline with Tween-80) was 0 of 6.

With `O=NN(CCS(=O)CCCl)C(=O)NC1CCCCC1` (centres undefined) the T/C (dose: 50.0 mg/kg/injection, schedule: Q01DX009 (ip), vehicle: water) was 133 % of control.

`N#CC(c1ccccc1)c1cnccn1` (centres undefined) was tested, and the survivor count [11] was 0 of 6.

With `S=C1NCC(c2ccccc2)(c2ccccc2)N1` the survivor count (dose: 25.0 mg/kg/injection, schedule: Q04DX003 (ip), vehicle: Klucel (hydroxypropylcellulose) (HPC)) was 2 of 6 and the survivor count (dose: 50.0 mg/kg/injection, schedule: Q04DX003 (ip), vehicle: Klucel (hydroxypropylcellulose) (HPC)) was 2 of 6.

For `NC(N)=NCCCCCC(=O)O`, the survivor count [13] was 3 of 6.

`CC(C)=CC[P+](CCCC[P+](CC=C(C)C)(c1ccccc1)c1ccccc1)(c1ccccc1)c1ccccc1` was tested, and the survivor count (dose: 6.25 mg/kg/injection, schedule: Q04DX003 (ip), vehicle: saline) was 0 of 6, the survivor count (dose: 12.5 mg/kg/injection, schedule: Q04DX003 (ip), vehicle: saline) was 0 of 6 and the survivor count (dose: 25.0 mg/kg/injection, schedule: Q04DX003 (ip), vehicle: saline) was 0 of 6. For the same compound, the survivor count (dose: 50.0 mg/kg/injection, schedule: Q04DX003 (ip), vehicle: saline) was 0 of 6, the survivor count (dose: 100.0 mg/kg/injection, schedule: Q04DX003 (ip), vehicle: saline) was 0 of 6 and the survivor count (dose: 200.0 mg/kg/injection, schedule: Q04DX003 (ip), vehicle: saline) was 0 of 6. For the same compound, the survivor count [14] was 0 of 6.

In the case of `Cn1nnc(-c2cccc(F)c2)n1`, the survivor count (dose: 100.0 mg/kg/injection, schedule: Q01DX005 (ip), vehicle: Klucel (hydroxypropylcellulose) (HPC)) is reported as 5 of 5.

For `CC1=C(C)C(=O)C2=C(OCCCO2)C1=O`, the survivor count [4] was 4 of 6, the survivor count [5] was 0 of 6 and the survivor count [6] was 0 of 6.
